Test results taken from PubChem BioAssay AID2685 (National Center for Advancing Translational Sciences (NCATS), 2010).
Where “and” joins values, the source holds several entries; their conditions need not be identical. Identical values can stand only once. The list shows a part of the results. The main result of the screen is listed elsewhere. These columns were measured beside it and carry no call. The list favours compounds with an active or inconclusive main result. Words in brackets tell the shape of the fitted curve; partial curves, single points and poor fits give uncertain potencies.

Experiment: qHTS Assay for Lipid Storage Modulators in Drosophila S3 Cells;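 as to cell number change: cells counted by Cell Tracker Red CMTPX staining in the red channel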
Conditions: BODIPY lipid droplet fluorescence, 18-24 h; for cell number change: measured here: cell count max response, cells fed with added oleic acid
Summary of the method: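 Drosophila S3 cells loaded with oleic acid (400 uM, as added) and compounds at several concentrations; lipid droplets imaged by 488-nm laser-scanning cytometry, 500–530 nm intensity and object ratio to cell channel. Percent activity normalized to 20 uM Triacsin C.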

[1] = measured here: cell number channel AC50, cells fed with added oleic acid
[2] = measured here: lipid fluorescence (Fed channel) AC50, cells fed with added oleic acid

SMILES: CC1CCCCN1C(=O)CSc1nnc(-c2ccccc2F)o1 (stereo not given)
- cell number change: 23.1%
- AC50 [1]: 2.91 µM [rising, partial curve, poor fit]

SMILES: Cc1nn(CCCC(=O)Nc2cc(Oc3ccccc3)cc([N+](=O)[O-])c2)c(C)c1[N+](=O)[O-]
- cell number change: -13.4%
- AC50 [2]: 23.1 µM [falling, single point]

SMILES: COc1ccc(-c2ccc3nnc(SCC(=O)N4CCCC4)n3n2)cc1
- AC50 [1]: 2.91 µM [rising, partial curve, poor fit]

SMILES: Cc1nc2ccccc2nc(C)c1=NOCc1ccc(Cl)cc1Cl
- cell number change: 8.87%
- AC50 [2]: 9.2 µM [rising, partial curve, poor fit]

SMILES: CCOc1cc(N2CCOCC2)c(OCC)cc1NC(=O)C1CC(=O)N(c2ccc(C)cc2)C1 (stereo not given)
- cell number change: 8.8%
- AC50 [2]: 4.11 µM [rising, full curve]

SMILES: CC1=CC(C)=Nc2ccc(C)cc2N1
- cell number change: 18.1% and 13.2%
- AC50 [2]: 29.1 µM [rising, single point]

SMILES: Clc1cccc(-c2nnc(-c3ccccc3)o2)c1
- cell number change: 172%

SMILES: CCCN1C(=O)CC(C(=O)OC)=C1C
- cell number change: -8.2%

SMILES: COc1cc(C2C=C(Nc3ccccc3)C(=O)N2c2ccccc2)ccc1O (stereo not given)
- cell number change: 1.66%
- AC50 [2]: 0.00461 µM [rising, full curve, poor fit]

SMILES: C/C(N)=C(/C#N)C(=O)CSc1nnc(SCc2ccc(Cl)cc2)s1
- cell number change: -16.1%
- AC50 [2]: 9.2 µM [rising, partial curve]

SMILES: O=C(COC(=O)Cc1ccccc1F)Nc1cccc(F)c1
- cell number change: -31%
- AC50 [1]: 2.06 µM [falling, full curve]
- AC50 [2]: 0.731 µM [falling, partial curve]

SMILES: COc1cc(/C=C2/C(=O)N(C)C(=S)N2C)ccc1OCc1cccc(F)c1
- cell number change: 83.9%
- AC50 [1]: 23.1 µM [rising, partial curve]

SMILES: Cc1ccccc1OCC(=O)OCC(=O)NCCc1ccccc1
- cell number change: -6.11%
- AC50 [2]: 0.0731 µM [falling, full curve, poor fit]

SMILES: O=C(Nc1c(F)cc(F)cc1Br)c1cccnc1
- cell number change: 8.33%

SMILES: O=C1C(=O)N(CCN2CCOCC2)C(c2ccccc2)/C1=C(\O)c1ccc2c(c1)OCCO2 (stereo not given)
- cell number change: -10.8%
- AC50 [2]: 29.1 µM [rising, single point]

SMILES: COc1cccc(NC(=O)Nc2ccc(C(C)(C)C)cc2)c1
- cell number change: -16.9%
- AC50 [2]: 29.1 µM [falling, single point]

SMILES: COc1cccc(-n2ccnc2SCC(=O)N2CCc3ccccc32)c1
- AC50 [1]: 0.651 µM [falling, single point]
- AC50 [2]: 20.6 µM [rising, single point]

SMILES: Cn1c(CNC(=O)OC(C)(C)C)n[nH]c1=S
- cell number change: 14.6%
- AC50 [2]: 32.6 µM [rising, single point]

SMILES: Cc1ccc(CNC(=O)C(=O)NCC2CCCN2S(=O)(=O)c2cc(C)ccc2C)cc1 (stereo not given)
- cell number change: 11.4%

SMILES: CCc1ccc(N2C(=O)C3CCCN3C2=S)cc1 (stereo not given)
- cell number change: -45.4%
- AC50 [1]: 4.61 µM [falling, partial curve, poor fit]
- AC50 [2]: 7.31 µM [falling, partial curve]

SMILES: Nc1ccc(N(c2ccccc2)c2ccc(N)cc2)cc1
- cell number change: -37.9%
- AC50 [1]: 29.1 µM [falling, single point]
- AC50 [2]: 29.1 µM [falling, single point]

SMILES: Cc1ccc(C(=O)COC(=O)CCC(=O)Nc2cccc(Cl)c2)cc1[N+](=O)[O-]
- cell number change: -20.9%
- AC50 [2]: 0.231 µM [falling, full curve, poor fit]

SMILES: CCN(CC)C(=O)C(C)N(C#N)c1nc(NC(C)C)nc(NC(C)C)n1 (stereo not given)
- cell number change: 173%
- AC50 [1]: 16.4 µM [rising, partial curve]
- AC50 [2]: 4.61 µM [rising, single point]

SMILES: COCCCNC(=S)NC1CC2CCCC(C1)N2Cc1ccco1 (stereo not given)
- cell number change: -74.5%
- AC50 [1]: 3.26 µM [falling, full curve]
- AC50 [2]: 2.31 µM [falling, full curve]

SMILES: COc1ccc(CCNC(=O)CSc2nc(=O)n3cccc(C)c3n2)cc1OC
- AC50 [1]: 2.31 µM [rising, single point]

SMILES: CC(=O)c1c(C)oc2ccc(O)c(CN3CCOCC3)c12
- cell number change: -15.1%
- AC50 [2]: 0.00517 µM [rising, full curve, poor fit]

SMILES: CCN(CC)CCNC(=O)c1ccc(NC(=O)COc2ccccc2F)cc1
- cell number change: 0.176%
- AC50 [1]: 3.66 µM [rising, single point]

SMILES: COC(=O)c1ccc[n+](CC(=O)Nc2ccc(OC(F)F)cc2)c1
- cell number change: 2.6%

SMILES: O=C(OCCCc1cc2ccccc2c(=O)o1)c1ccc(F)cc1
- cell number change: 1.36%
- AC50 [2]: 11.6 µM [rising, single point]

SMILES: CCOC(=O)N1CCN(C(=O)C2CC(c3ccc(F)cc3)=NO2)CC1 (stereo not given)
- cell number change: 15%

SMILES: CC(c1ccc(F)cc1)n1c(Cn2ncc3ccccc3c2=O)n[nH]c1=S (stereo not given)
- cell number change: 19.2%
- AC50 [2]: 1.16 µM [rising, full curve, poor fit]

SMILES: CC(=O)Nc1ccc(NC(=O)C2CCCN2C(=O)Nc2ccc(F)cc2)cc1 (stereo not given)
- cell number change: -23.8%
- AC50 [2]: 0.206 µM [rising, single point]

SMILES: Cc1cc(OCC(=O)Nc2ccc(CN3CCOCC3)cc2)ccc1Cl
- cell number change: -1.73%
- AC50 [2]: 29.1 µM [falling, single point]

SMILES: CCCS(=O)(=O)N1CCC(C(=O)N2CCN(Cc3ccccc3)CC2)CC1
- cell number change: 11.1%

SMILES: CCOP(=O)(OCC)C(C)(C)NC(=O)c1cc([N+](=O)[O-])cc([N+](=O)[O-])c1
- cell number change: 5.81%

SMILES: O=C(c1cc2ccccc2o1)N1CCN(S(=O)(=O)c2cccs2)CC1
- cell number change: 21.8%
- AC50 [1]: 2.31 µM [rising, partial curve]
- AC50 [2]: 0.651 µM [rising, partial curve]

SMILES: Cc1ccc(OCCC(=O)OCC(=O)NNC(=O)c2ccccc2)cc1
- cell number change: -20.5%

SMILES: CC(=O)c1c(C(C)=O)c(C)n(-c2cccc([N+](=O)[O-])c2)c1C
- cell number change: -3.93%
- AC50 [1]: 1.84 µM [falling, partial curve]
- AC50 [2]: 2.31 µM [falling, partial curve]

SMILES: Cc1cc2oc(=O)cc(CN(C)Cc3ccccc3Cl)c2cc1C
- cell number change: 5.13%
- AC50 [2]: 0.116 µM [rising, single point]

SMILES: Cc1ccc(S(=O)(=O)NCc2ccccc2)cc1C(=O)N(C)Cc1ccc(F)cc1
- cell number change: 48%

SMILES: Cc1ccc(-c2ccc(/C=N/N=C3/NC(=O)C(CC(=O)O)S3)o2)c([N+](=O)[O-])c1 (stereo not given)
- cell number change: -29.3%
- AC50 [1]: 0.13 µM [falling, full curve, poor fit]
- AC50 [2]: 0.731 µM [falling, full curve]

SMILES: Cc1ccc(S(=O)(=O)N2CCN(c3ncnc4ccccc34)CC2)cc1
- cell number change: -38.7%
- AC50 [1]: 29.1 µM [falling, single point]
- AC50 [2]: 0.411 µM [falling, partial curve]

SMILES: CCCCn1c(=NC(=O)c2ccco2)c(C(=O)OCC)cc2c(=O)n3ccccc3nc21
- cell number change: -14.1%
- AC50 [2]: 3.26 µM [falling, full curve, poor fit]

SMILES: Cc1ccc(C(C)(C)C)cc1S(=O)(=O)N1CCC(C(=O)N2CCN(c3ccc(O)cc3)CC2)CC1
- AC50 [2]: 0.411 µM [falling, full curve]

SMILES: COc1ccc(S(=O)(=O)N(C)CC(=O)NCCC2=CCCCC2)cc1
- cell number change: -27.5%
- AC50 [1]: 0.184 µM [falling, full curve]
- AC50 [2]: 16.4 µM [falling, partial curve]

SMILES: Cc1cccc(CN2CCC(C(=O)Nc3cccc(-c4cscn4)c3)CC2)n1
- cell number change: -4.53%
- AC50 [1]: 6.51 µM [rising, single point]

SMILES: CCSc1ncc(Cl)c(C(=O)Nc2ccc(S(=O)(=O)Nc3onc(C)c3C)cc2)n1
- AC50 [2]: 0.116 µM [falling, full curve, poor fit]

SMILES: COc1cc(CNCCc2c[nH]c3ccccc23)ccc1OCc1ccc(F)cc1
- cell number change: -93.7%
- AC50 [1]: 29.1 µM [falling, single point]
- AC50 [2]: 23.1 µM [falling, single point]

SMILES: COc1ccccc1/C=C/C=C(\C#N)C(=O)NC(C)c1ccccc1 (stereo not given)
- cell number change: -1.59%
- AC50 [2]: 3.66 µM [rising, single point]

SMILES: CN(Cc1cccs1)C(=O)c1cc(S(=O)(=O)N2CCOCC2)ccc1F
- cell number change: -1.63%

SMILES: COc1ccc(OCCN2CCN(S(=O)(=O)c3ccccc3C(F)(F)F)CC2)cc1
- cell number change: -15.2%
- AC50 [2]: 8.2 µM [falling, full curve, poor fit]

SMILES: Cc1c(C(=O)c2no[n+]([O-])c2C(=O)c2cnn(C)c2C)cnn1C
- cell number change: -90.8%
- AC50 [1]: 29.1 µM [falling, partial curve]
- AC50 [2]: 8.2 µM [falling, partial curve, poor fit]

SMILES: CCc1cccc2c(C(=O)COC(=O)c3cnc(C)cn3)c[nH]c12
- cell number change: -2.34%
- AC50 [2]: 1.46 µM [rising, partial curve]

SMILES: Cc1csc(N(C(=O)c2ccccc2F)c2ccccc2)n1
- cell number change: -7.68%

SMILES: Cc1ccccc1NC(=S)N1CCCC1
- cell number change: -18.9%
- AC50 [2]: 0.00461 µM [falling, full curve, poor fit]

SMILES: CCOC(=O)CNC(=O)CN1C(=O)CCSc2ccccc21
- cell number change: -13.4%
- AC50 [2]: 0.231 µM [falling, full curve, poor fit]

SMILES: O=C(COc1cccc2ccccc12)N/N=C/c1ccc(Sc2nc3ccccc3s2)o1
- AC50 [2]: 0.731 µM [rising, full curve]

SMILES: CC1CN(C2=Nc3cccc4cccc2c34)CC(C)O1 (stereo not given)
- cell number change: -10.5%
- AC50 [1]: 0.0058 µM [rising, full curve, poor fit]
- AC50 [2]: 0.00461 µM [rising, full curve, poor fit]

SMILES: CN(CC1CCCO1)S(=O)(=O)c1ccc(C(=O)Nc2ccc(S(N)(=O)=O)cc2)cc1 (stereo not given)
- cell number change: -30.5%
- AC50 [1]: 16.4 µM [falling, single point]
- AC50 [2]: 20.6 µM [falling, partial curve]
